Laboratory results published in PMC7234994, “Structural insights into the inhibition mechanism of human sterol O-acyltransferase 1 by a competitive inhibitor” (Nature Communications, 2020).
Results are given in words; binding and its absence hold for the method and conditions named. Some results given as binding are weak or reduced against the parent protein; the word gives no strength. For some assays here: Tags and fused reporters may be left off the sequences shown.

Legend:
[1] = target: hSOAT1 dimer construct (66-550) L151W (human) (UniProt P35610); assay: SEC; FSEC of hSOAT1 dimer construct with dimer-interface mutations; dimer and monomer fractions
[2] = target: hSOAT1 dimer construct (66-550) V159W (human) (UniProt P35610); assay: as above
[3] = target: N-terminal GFP-tagged N-terminal truncated human SOAT1 (66-550) (human) (UniProt P35610); assay: SEC; FSEC thermostability assay: GFP-tagged hSOAT1 dimer construct from HEK293F solubilized in 1% GDN, kept at 4 °C or heated at 45 °C for 10 min, with DMSO or 100 µM CI-976; Superose 6 increase 5/150 in 20 mM Tris pH 8.0, 150 mM NaCl, 0.5 mM DDM
[4] = target: hSOAT1 dimer construct (66-550) T140R (human) (UniProt P35610); assay: SEC; FSEC of hSOAT1 dimer construct with dimer-interface mutations; dimer and monomer fractions
[5] = target: hSOAT1 dimer construct (66-550) A147F (human) (UniProt P35610); assay: as above

B1: hSOAT1 dimer construct (66-550) L151W (domain or fragment, UniProt P35610 66-550)
chain: MKEVGSHFDDFVTNLIEKSASLDNGGCALTTFSVLEGEKNNHRAKDLRAPPEQGKIFIARRSLLDELLEVDHIRTIYHMFIALLIWFILSTLVVDYIDEGRLVLEFSLLSYAFGKFPTVVWTWWIMFLSTFSVPYFLFQHWATGYSKSSHPLIRSLFHGFLFMIFQIGVLGFGPTYVVLAYTLPPASRFIIIFEQIRFVMKAHSFVRENVPRVLNSAKEKSSTVPIPTVNQYLYFLFAPTLIYRDSYPRNPTVRWGYVAMKFAQVFGCFFYVYYIFERLCAPLFRNIKQEPFSARVLVLCVFNSILPGVLILFLTFFAFLHCWLNAFAEMLRFGDRMFYKDWWNSTSYSNYYRTWNVVVHDWLYYYAYKDFLWFFSKRFKSAAMLAVFAVSAVVHEYALAVCLSFFYPVLFVLFMFFGMAFNFIVNDSRKKPIWNVLMWTSLFLGNGVLLCFYSQEWYARQHCPLKNPTFLDYVRPRSWTCRYVF
B1 was tested, and the binding [1] was “binds”.

B2: hSOAT1 dimer construct (66-550) V159W (domain or fragment, UniProt P35610 66-550)
chain: MKEVGSHFDDFVTNLIEKSASLDNGGCALTTFSVLEGEKNNHRAKDLRAPPEQGKIFIARRSLLDELLEVDHIRTIYHMFIALLILFILSTLVWDYIDEGRLVLEFSLLSYAFGKFPTVVWTWWIMFLSTFSVPYFLFQHWATGYSKSSHPLIRSLFHGFLFMIFQIGVLGFGPTYVVLAYTLPPASRFIIIFEQIRFVMKAHSFVRENVPRVLNSAKEKSSTVPIPTVNQYLYFLFAPTLIYRDSYPRNPTVRWGYVAMKFAQVFGCFFYVYYIFERLCAPLFRNIKQEPFSARVLVLCVFNSILPGVLILFLTFFAFLHCWLNAFAEMLRFGDRMFYKDWWNSTSYSNYYRTWNVVVHDWLYYYAYKDFLWFFSKRFKSAAMLAVFAVSAVVHEYALAVCLSFFYPVLFVLFMFFGMAFNFIVNDSRKKPIWNVLMWTSLFLGNGVLLCFYSQEWYARQHCPLKNPTFLDYVRPRSWTCRYVF
With B2 the binding [2] was “binds”.

B3: N-terminal GFP-tagged N-terminal truncated human SOAT1 (66-550) (domain or fragment, UniProt P35610 66-550, looked up)
chain: MKEVGSHFDDFVTNLIEKSASLDNGGCALTTFSVLEGEKNNHRAKDLRAPPEQGKIFIARRSLLDELLEVDHIRTIYHMFIALLILFILSTLVVDYIDEGRLVLEFSLLSYAFGKFPTVVWTWWIMFLSTFSVPYFLFQHWATGYSKSSHPLIRSLFHGFLFMIFQIGVLGFGPTYVVLAYTLPPASRFIIIFEQIRFVMKAHSFVRENVPRVLNSAKEKSSTVPIPTVNQYLYFLFAPTLIYRDSYPRNPTVRWGYVAMKFAQVFGCFFYVYYIFERLCAPLFRNIKQEPFSARVLVLCVFNSILPGVLILFLTFFAFLHCWLNAFAEMLRFGDRMFYKDWWNSTSYSNYYRTWNVVVHDWLYYYAYKDFLWFFSKRFKSAAMLAVFAVSAVVHEYALAVCLSFFYPVLFVLFMFFGMAFNFIVNDSRKKPIWNVLMWTSLFLGNGVLLCFYSQEWYARQHCPLKNPTFLDYVRPRSWTCRYVF
notes: human sterol O-acyltransferase 1 (SOAT1), residues 66-550 (N-terminal tetramerization domain deleted); also called hSOAT1 dimer; SOAT1-dimer (66-550); source: HEK293F, transfected, solubilized with 1% GDN (supernatant, not purified); not shown: GFP, N-terminal, kept
With B3 the binding [3] was “binds”.

B4: hSOAT1 dimer construct (66-550) T140R (domain or fragment, UniProt P35610 66-550)
chain: MKEVGSHFDDFVTNLIEKSASLDNGGCALTTFSVLEGEKNNHRAKDLRAPPEQGKIFIARRSLLDELLEVDHIRRIYHMFIALLILFILSTLVVDYIDEGRLVLEFSLLSYAFGKFPTVVWTWWIMFLSTFSVPYFLFQHWATGYSKSSHPLIRSLFHGFLFMIFQIGVLGFGPTYVVLAYTLPPASRFIIIFEQIRFVMKAHSFVRENVPRVLNSAKEKSSTVPIPTVNQYLYFLFAPTLIYRDSYPRNPTVRWGYVAMKFAQVFGCFFYVYYIFERLCAPLFRNIKQEPFSARVLVLCVFNSILPGVLILFLTFFAFLHCWLNAFAEMLRFGDRMFYKDWWNSTSYSNYYRTWNVVVHDWLYYYAYKDFLWFFSKRFKSAAMLAVFAVSAVVHEYALAVCLSFFYPVLFVLFMFFGMAFNFIVNDSRKKPIWNVLMWTSLFLGNGVLLCFYSQEWYARQHCPLKNPTFLDYVRPRSWTCRYVF
B4 was tested, and the binding [4] was “binds”.

B5: hSOAT1 dimer construct (66-550) A147F (domain or fragment, UniProt P35610 66-550)
chain: MKEVGSHFDDFVTNLIEKSASLDNGGCALTTFSVLEGEKNNHRAKDLRAPPEQGKIFIARRSLLDELLEVDHIRTIYHMFIFLLILFILSTLVVDYIDEGRLVLEFSLLSYAFGKFPTVVWTWWIMFLSTFSVPYFLFQHWATGYSKSSHPLIRSLFHGFLFMIFQIGVLGFGPTYVVLAYTLPPASRFIIIFEQIRFVMKAHSFVRENVPRVLNSAKEKSSTVPIPTVNQYLYFLFAPTLIYRDSYPRNPTVRWGYVAMKFAQVFGCFFYVYYIFERLCAPLFRNIKQEPFSARVLVLCVFNSILPGVLILFLTFFAFLHCWLNAFAEMLRFGDRMFYKDWWNSTSYSNYYRTWNVVVHDWLYYYAYKDFLWFFSKRFKSAAMLAVFAVSAVVHEYALAVCLSFFYPVLFVLFMFFGMAFNFIVNDSRKKPIWNVLMWTSLFLGNGVLLCFYSQEWYARQHCPLKNPTFLDYVRPRSWTCRYVF
With B5 the binding [5] was “binds”.
